Data from paper PMC7437997.
Construct, isoform or probe ends are uncertain for at least one entry.

Tests used:
[1] = biological target: Lhr (archaeal Lhr, Mth1802) (Methanothermobacter thermautotrophicus ΔH) (UniProt O27830); experiment: EMSA; conditions: room temperature, 10 nM DNA, 100 nM Lhr, +/- ATP and MgCl2, 5% acrylamide TBE gel, recombinant protein
[2] = biological target: Lhr (archaeal Lhr, Mth1802) (Methanothermobacter thermautotrophicus ΔH) (UniProt O27830); experiment: smFRET; conditions: 1 µM Lhr, 5' biotin on S18, smFRET: 1 µM Lhr, RT or 45°C, recombinant protein

Measured: binding result

ATCGATAGTCTCTAGACAGTATGTCCTAGCAAGCCAGAATTCGGCAGCGT / GGACATACTGTCTAGAGACTATCGAT / GACGCTGCCGAATTCTGGCTTGCTATGTAAATCTTTGCCCACGTTGACCC / GGGTCAACGTGGGCAAAGATTTACA [fork-2 (ATTO 532/ATTO 647N labelled FRET fork)]
binds: [1]; ATP-Mg2+, Lhr-bound two-strand unwinding product, 5' biotin on S18, EMSA: buffer HB (20 mM Tris-HCl pH 7.5, 2 mM DTT, 100 µg/ml BSA, 7% glycerol) | [1]; no ATP, 5' biotin on S18, EMSA: buffer HB (20 mM Tris-HCl pH 7.5, 2 mM DTT, 100 µg/ml BSA, 7% glycerol) | [2]; 45°C, 1 mM MgCl2, 2 mM ATP, E ~ 0, fork mostly unwound | [2]; 45°C, no ATP-Mg2+, new populations E = 0.50, 0.92 and 0.12 | [2]; room temperature, no ATP-Mg2+, E shifts 0.72 to 0.78
